Measurements reported in PubChem BioAssay AID1259425 (University of Nebraska Medical Center, 2018)

Screen: 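Find knockdowns that reproduce the gene expression pattern seen when KSR1 is lost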 (primary screen)
Cells: HCT116 human colon cancer cells
Knock-down reagent: siRNA pool against human genes, 50 nM siRNA
Measurement: 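mRNA of six signature genes measured together by branched-DNA assay after 50 nM siRNA pool, blank removed, divided by geometric mean of two housekeeping genes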
Scale: BNIP3L mRNA: higher = more BNIP3L transcript after knockdown; NDRG1 mRNA: higher = more NDRG1 transcript after knockdown
The whole screen tested about 14,000 reagents; shown is a part drawn at random. Not all columns of the deposit are shown. The record does not give: the time to read-out.

MAP4 (microtubule associated protein 4) → BNIP3L mRNA, set 1: 0.309; NDRG1 mRNA, set 1: 0.278
PCGF1 (polycomb group ring finger 1) → BNIP3L mRNA, set 1: 0.106; NDRG1 mRNA, set 1: 0.167
MBNL3 (muscleblind like splicing regulator 3) → BNIP3L mRNA, set 1: 0.0991; NDRG1 mRNA, set 1: 0.0844
CERS4 (ceramide synthase 4) → BNIP3L mRNA, set 1: 0.141; NDRG1 mRNA, set 1: 0.239
CCDC69 (coiled-coil domain containing 69) → BNIP3L mRNA, set 1: 0.0696; NDRG1 mRNA, set 1: 0.351
CDR2 (cerebellar degeneration related protein 2) → BNIP3L mRNA, set 1: 0.248; NDRG1 mRNA, set 1: 0.588
FOXA2 (forkhead box A2) → BNIP3L mRNA, set 1: 0.112; NDRG1 mRNA, set 1: 0.213
RASIP1 (Ras interacting protein 1) → BNIP3L mRNA, set 1: 0.429; NDRG1 mRNA, set 1: 1.3
KIF23 (kinesin family member 23) → BNIP3L mRNA, set 1: 0.106; NDRG1 mRNA, set 1: 0.221
SRSF5 (serine and arginine rich splicing factor 5) → BNIP3L mRNA, set 1: 0.0796; NDRG1 mRNA, set 1: 0.259
AAGAB (alpha and gamma adaptin binding protein) → BNIP3L mRNA, set 1: 0.202; NDRG1 mRNA, set 1: 0.252
ATL3 (atlastin GTPase 3) → BNIP3L mRNA, set 1: 0.0568; NDRG1 mRNA, set 1: 0.323
PPM1B (protein phosphatase, Mg2+/Mn2+ dependent 1B) → BNIP3L mRNA, set 1: 0.0791; NDRG1 mRNA, set 1: 0.415
HMGCL (3-hydroxy-3-methylglutaryl-CoA lyase) → BNIP3L mRNA, set 1: 0.111; NDRG1 mRNA, set 1: 0.23
PCNX1 (pecanex 1) → BNIP3L mRNA, set 1: 0.109; NDRG1 mRNA, set 1: 0.345
SELENOO (selenoprotein O) → BNIP3L mRNA, set 1: 0.161; NDRG1 mRNA, set 1: 0.345
RSKR (ribosomal protein S6 kinase related) → BNIP3L mRNA, set 1: 0.151; NDRG1 mRNA, set 1: 0.0728
CACNG5 (calcium voltage-gated channel auxiliary subunit gamma 5) → BNIP3L mRNA, set 1: 0.0887; NDRG1 mRNA, set 1: 0.0626
EIF3E (eukaryotic translation initiation factor 3 subunit E) → BNIP3L mRNA, set 1: 0.0817; NDRG1 mRNA, set 1: 0.134

A run of entries from the list above, as a working copy:
MBNL3 (muscleblind like splicing regulator 3) → BNIP3L mRNA, set 1: 0.0991; NDRG1 mRNA, set 1: 0.0844
CERS4 (ceramide synthase 4) → BNIP3L mRNA, set 1: 0.141; NDRG1 mRNA, set 1: 0.239
